Assay results taken from publication PMC7255042.
No constants are given. Whether binding was seen depends on the method and setting. Binding seen in cells or lysates may run through a third protein.

Target: Notch intracellular domain
Assay: co-IP; coimmunoprecipitation assay; cells, antibodies and conditions not told in the main text (Figure S4C)

B1: AT-rich interaction domain-containing protein 3B (protein, UniProt Q8IVW6 1-561)
chain: MEPLQQQQQQQQQQQKQPHLAPLQMDAREKQGQQMREAQFLYAQKLVTQPTLLSATAGRPSGSTPLGPLARVPPTAAVAQVFERGNMNSEPEEEDGGLEDEDGDDEVAEVAEKETQAASKYFHVQKVARQDPRVAPMSNLLPAPGLPPHGQQAKEDHTKDASKASPSVSTAGQPNWNLDEQLKQNGGLAWSDDADGGRGREISRDFAKLYELDGDPERKEFLDDLFVFMQKRGTPINRIPIMAKQILDLYMLYKLVTEKGGLVEIINKKIWREITKGLNLPTSITSAAFTLRTQYMKYLYAYECEKKALSSPAELQAAIDGNRREGRRPSYSSSLFGYSPAAATAAAAAGAPALLSPPKIRFPILGLGSSSGTNTSSPRISPATTLRKGDGAPVTTVPVPNRLAVPVTLASQQAGTRTAALEQLRERLESGEPAEKKASRLSEEEQRLVQQAFQRNFFSMARQLPMKIRINGRAEDRAEASAAALNLTTSSIGSINMSVDIDGTTYAGVLFAQKPVVHLITGSAPQSLGSSASSSSSSHCSPSPTSSRGTPSAEPSTSWSL
Q: How did the binding turn out when B1 was run?
A: no binding
